Reference: patent US20240076313A1, “POLYPEPTIDES RV3 AND RV4 HAVING ANTI-AGING FUNCTION AND APPLICATIONS THEREOF” (NANJING ANJI BIOLOGICAL TECHNOLOGY CO., LTD, priority 2020, published 2024)
At least one peptide structure holds a part that was inferred or is arguable (an end, a ring closure or a residue). No end group written: not given here.

Legend:
Type in all cases: in vivo
[1] = tested on: Caenorhabditis elegans; assay: Experiment on acute oxidative stress of Caenorhabditis elegans
[2] = tested on: Caenorhabditis elegans; assay: Experiment on the lifespan of Caenorhabditis elegans; conditions: 10 nM; for Number of remaining nematodes: lifespan experiment
[3] = tested on: Caenorhabditis elegans; assay: Experiment on acute heat stress of Caenorhabditis elegans; conditions: for Number of remaining nematodes: 10 nM
[4] = tested on: Caenorhabditis elegans; assay: Experiment on the decline of movement ability of Caenorhabditis elegans; conditions: for Proportion of nematodes in grade A (autonomous crawling) / Proportion of nematodes in grade B (between A and C) / Proportion of nematodes in grade C (move only after heads are touched): no stress
[5] = tested on: Caenorhabditis elegans; assay: Detection of the ability of movement behavior of Caenorhabditis elegans; conditions: 10 nM
[6] = oxidative stress on Day 4, after 24 h
[7] = oxidative stress on Day 8, after 24 h
[8] = heat stress on Day 4, after 24 h
[9] = heat stress on Day 8, after 6 h
[10] = 48 h culture from L1, Mean ± SEM

TAFAA [RV3, Thr-Ala-Phe-Ala-Ala]
Survival rate ([1]; oxidative stress (30 mM H2O2, 4 h) on Day 4, Mean ± SEM): 0.831 ± 0.063
Survival rate ([1]; oxidative stress (30 mM H2O2, 4 h) on Day 8, Mean ± SEM): 0.809 ± 0.072
Proportion of nematodes in grade A (autonomous crawling) [1, 6]: 64.71%
Proportion of nematodes in grade B (between A and C) [1, 6]: 23.53%
Proportion of nematodes in grade C (move only after heads are touched) [1, 6]: 11.76%
proportion of nematodes in grade A compared with the control group (in words) ([1]; oxidative stress on Day 8): higher than that in the control group
Proportion of nematodes in grade A (autonomous crawling) [1, 7]: 29.03%
Proportion of nematodes in grade B (between A and C) [1, 7]: 48.39%
Proportion of nematodes in grade C (move only after heads are touched) [1, 7]: 22.58%
day when death occurs compared with the control group (in words) [2]: delayed
longest lifespan of the nematodes [2]: 30 days
time to half death compared with the control group (in words) [2]: does not have a significant difference
Time to half death ([2]; Median ± SE): 20.000 ± 0.865 days
Number of remaining nematodes ([2]; day 0): 27
Number of remaining nematodes ([2]; day 1): 27
Number of remaining nematodes ([2]; day 2): 27
Number of remaining nematodes ([2]; day 3): 27
Number of remaining nematodes ([2]; day 4): 27
Number of remaining nematodes ([2]; day 5): 27
Number of remaining nematodes ([2]; day 6): 27
Number of remaining nematodes ([2]; day 7): 27
Number of remaining nematodes ([2]; day 8): 27
Number of remaining nematodes ([2]; day 9): 27
Number of remaining nematodes ([2]; day 10): 27
Number of remaining nematodes ([2]; day 11): 27
Number of remaining nematodes ([2]; day 12): 27
Number of remaining nematodes ([2]; day 13): 26
Number of remaining nematodes ([2]; day 14): 26
Number of remaining nematodes ([2]; day 15): 26
Number of remaining nematodes ([2]; day 16): 26
Number of remaining nematodes ([2]; day 17): 25
Number of remaining nematodes ([2]; day 18): 21
Number of remaining nematodes ([2]; day 19): 14
Number of remaining nematodes ([2]; day 20): 13
Number of remaining nematodes ([2]; day 21): 12
Number of remaining nematodes ([2]; day 22): 11
Number of remaining nematodes ([2]; day 23): 8
Number of remaining nematodes ([2]; day 24): 5
Number of remaining nematodes ([2]; day 25): 4
Number of remaining nematodes ([2]; day 26): 3
Number of remaining nematodes ([2]; day 27): 2
Number of remaining nematodes ([2]; day 28): 2
Number of remaining nematodes ([2]; day 29): 1
Number of remaining nematodes ([2]; day 30): 1
Number of remaining nematodes ([2]; day 31): 0
Number of remaining nematodes ([2]; day 32): 0
Number of remaining nematodes ([2]; day 33): 0
Number of remaining nematodes ([2]; day 34): 0
longest lifespan, longer than that of the control group ([2]; vs control group): 2 days
longest survival time of the nematodes ([3]; acute heat stress on Day 4): 32 h
time to half death compared with the control group (in words) ([3]; acute heat stress on Day 4): significant difference
time when death occurs compared with the control group (in words) ([3]; acute heat stress on Day 4): no difference
longest survival time, longer than that of the control group ([3]; acute heat stress on Day 4, vs control group): 4 h
time to half death compared with the control group (in words) ([3]; acute heat stress on Day 8): significant difference
Number of remaining nematodes ([3]; heat stress 35° C. on Day 4 of dosing, 0 h): 23
Number of remaining nematodes ([3]; heat stress 35° C. on Day 4 of dosing, 4 h): 23
Number of remaining nematodes ([3]; heat stress 35° C. on Day 4 of dosing, 8 h): 23
Number of remaining nematodes ([3]; heat stress 35° C. on Day 4 of dosing, 12 h): 22
Number of remaining nematodes ([3]; heat stress 35° C. on Day 4 of dosing, 16 h): 22
Number of remaining nematodes ([3]; heat stress 35° C. on Day 4 of dosing, 20 h): 19
Number of remaining nematodes ([3]; heat stress 35° C. on Day 4 of dosing, 24 h): 14
Number of remaining nematodes ([3]; heat stress 35° C. on Day 4 of dosing, 28 h): 8
Number of remaining nematodes ([3]; heat stress 35° C. on Day 4 of dosing, 32 h): 2
Number of remaining nematodes ([3]; heat stress 35° C. on Day 4 of dosing, 36 h): 0
Number of remaining nematodes ([3]; heat stress 35° C. on Day 8 of dosing, 0 h): 18
Number of remaining nematodes ([3]; heat stress 35° C. on Day 8 of dosing, 2 h): 18
Number of remaining nematodes ([3]; heat stress 35° C. on Day 8 of dosing, 4 h): 17
Number of remaining nematodes ([3]; heat stress 35° C. on Day 8 of dosing, 6 h): 16
Number of remaining nematodes ([3]; heat stress 35° C. on Day 8 of dosing, 8 h): 14
Number of remaining nematodes ([3]; heat stress 35° C. on Day 8 of dosing, 10 h): 14
Number of remaining nematodes ([3]; heat stress 35° C. on Day 8 of dosing, 12 h): 11
Number of remaining nematodes ([3]; heat stress 35° C. on Day 8 of dosing, 14 h): 7
Number of remaining nematodes ([3]; heat stress 35° C. on Day 8 of dosing, 16 h): 2
Number of remaining nematodes ([3]; heat stress 35° C. on Day 8 of dosing, 18 h): 1
Number of remaining nematodes ([3]; heat stress 35° C. on Day 8 of dosing, 20 h): 0
proportion of nematodes in grade A compared with the control group (in words) ([3]; heat stress on Day 4): higher than that in the control group
Time to half death ([3]; heat stress on Day 4, Median ± SE): 28.000 ± 1.523 h
Proportion of nematodes in grade A (autonomous crawling) [3, 8]: 13.33%
Proportion of nematodes in grade B (between A and C) [3, 8]: 40.00%
Proportion of nematodes in grade C (move only after heads are touched) [3, 8]: 46.67%
Time to half death ([3]; heat stress on Day 8, Median ± SE): 14.000 ± 1.034 h
Proportion of nematodes in grade A (autonomous crawling) [3, 9]: 28.00%
Proportion of nematodes in grade B (between A and C) [3, 9]: 56.00%
Proportion of nematodes in grade C (move only after heads are touched) [3, 9]: 16.00%
movement ability (head swing, pharyngeal pumping) compared with the control group (in words) ([4]; Day 4, Day 8, and Day 12): no significant difference
Frequency of head swing ([4]; Day 4, Mean ± SEM): 58.750 ± 1.372 /30 s
Frequency of pharyngeal pumping ([4]; Day 4, Mean ± SEM): 108.650 ± 7.924 /30 s
Proportion of nematodes in grade A (autonomous crawling) ([4]; Day 4 of dosing): 97.56%
Proportion of nematodes in grade B (between A and C) ([4]; Day 4 of dosing): 2.44%
Proportion of nematodes in grade C (move only after heads are touched) ([4]; Day 4 of dosing): 0.00%
Frequency of head swing ([4]; Day 8, Mean ± SEM): 35.800 ± 2.174 /30 s
Frequency of pharyngeal pumping ([4]; Day 8, Mean ± SEM): 89.180 ± 5.634 /30 s
proportion of nematodes in grade C compared with the control group (in words) ([4]; Day 8 and Day 12): lower than that in the control group
Proportion of nematodes in grade A (autonomous crawling) ([4]; Day 8 of dosing): 38.10%
Proportion of nematodes in grade B (between A and C) ([4]; Day 8 of dosing): 47.62%
Proportion of nematodes in grade C (move only after heads are touched) ([4]; Day 8 of dosing): 14.29%
Frequency of head swing ([4]; Day 12, Mean ± SEM): 14.500 ± 3.878 /30 s
Frequency of pharyngeal pumping ([4]; Day 12, Mean ± SEM): 75.000 ± 13.103 /30 s
Proportion of nematodes in grade A (autonomous crawling) ([4]; Day 12 of dosing): 44.44%
Proportion of nematodes in grade B (between A and C) ([4]; Day 12 of dosing): 33.33%
Proportion of nematodes in grade C (move only after heads are touched) ([4]; Day 12 of dosing): 22.22%
ability of movement behavior compared with the control group (in words) [5]: does not have a significant difference
Frequency of body bending [5, 10]: 12.70 ± 0.411 /30 s
Frequency of head swing [5, 10]: 59.10 ± 1.474 /30 s
Frequency of pharyngeal pumping [5, 10]: 160.80 ± 2.592 /30 s
